Experimental data as given in publication PMC6329818.
Results are given in words; binding and its absence hold for the method and conditions named. In cells and extracts the contact can be indirect. These calls come from enrichment with a bait or labelling near it, and not all partners need be listed.

Protein sequences, listed by entry. Tags and fused reporters are not part of them. Lines headed by an entry give the natural chain unless they say otherwise; changes in a name come on top.
UniProt Q9V5M3: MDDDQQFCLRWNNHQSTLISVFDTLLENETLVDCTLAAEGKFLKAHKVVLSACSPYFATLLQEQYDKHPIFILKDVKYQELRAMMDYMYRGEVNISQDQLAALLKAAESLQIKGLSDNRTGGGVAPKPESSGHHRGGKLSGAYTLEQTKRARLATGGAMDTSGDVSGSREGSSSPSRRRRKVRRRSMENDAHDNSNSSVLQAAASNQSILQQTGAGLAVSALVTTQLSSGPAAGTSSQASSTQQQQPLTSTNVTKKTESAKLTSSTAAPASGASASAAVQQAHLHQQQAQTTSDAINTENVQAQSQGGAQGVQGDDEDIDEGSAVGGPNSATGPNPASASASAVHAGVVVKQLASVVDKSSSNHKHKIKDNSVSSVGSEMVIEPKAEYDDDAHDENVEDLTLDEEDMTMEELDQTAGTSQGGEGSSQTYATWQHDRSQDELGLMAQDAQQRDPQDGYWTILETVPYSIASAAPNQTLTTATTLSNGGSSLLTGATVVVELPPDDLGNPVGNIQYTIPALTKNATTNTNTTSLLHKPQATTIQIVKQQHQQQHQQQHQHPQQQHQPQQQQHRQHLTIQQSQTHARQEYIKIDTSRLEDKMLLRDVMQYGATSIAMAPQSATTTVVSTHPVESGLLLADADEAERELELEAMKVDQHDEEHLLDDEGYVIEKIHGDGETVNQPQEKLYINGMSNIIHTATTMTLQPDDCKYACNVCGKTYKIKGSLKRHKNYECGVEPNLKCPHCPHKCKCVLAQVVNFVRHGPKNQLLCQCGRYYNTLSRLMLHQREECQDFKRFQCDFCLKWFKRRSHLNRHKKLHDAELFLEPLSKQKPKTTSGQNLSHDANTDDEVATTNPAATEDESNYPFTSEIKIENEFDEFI
UniProt Q24311: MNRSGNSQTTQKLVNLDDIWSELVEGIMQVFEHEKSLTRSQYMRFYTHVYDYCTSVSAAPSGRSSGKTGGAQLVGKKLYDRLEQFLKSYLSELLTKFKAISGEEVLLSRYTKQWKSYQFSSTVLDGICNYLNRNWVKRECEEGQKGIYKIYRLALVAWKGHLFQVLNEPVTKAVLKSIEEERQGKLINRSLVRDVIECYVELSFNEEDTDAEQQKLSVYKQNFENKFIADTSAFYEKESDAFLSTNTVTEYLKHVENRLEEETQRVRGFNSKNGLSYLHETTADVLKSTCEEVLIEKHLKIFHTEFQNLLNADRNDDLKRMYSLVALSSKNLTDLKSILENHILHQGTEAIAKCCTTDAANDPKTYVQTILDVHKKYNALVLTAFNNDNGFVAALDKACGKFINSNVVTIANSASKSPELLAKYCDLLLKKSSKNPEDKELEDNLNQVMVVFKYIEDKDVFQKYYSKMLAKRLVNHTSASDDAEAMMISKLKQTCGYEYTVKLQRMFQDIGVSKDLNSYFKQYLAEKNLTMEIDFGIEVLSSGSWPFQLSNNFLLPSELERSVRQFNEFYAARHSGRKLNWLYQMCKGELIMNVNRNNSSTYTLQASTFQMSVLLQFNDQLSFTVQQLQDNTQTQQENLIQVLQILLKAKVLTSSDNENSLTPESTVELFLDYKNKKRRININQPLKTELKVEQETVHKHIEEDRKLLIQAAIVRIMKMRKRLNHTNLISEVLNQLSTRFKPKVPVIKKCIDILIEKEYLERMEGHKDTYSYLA

Target: HA-Lola29M[Δ1-150]-V5 (Drosophila melanogaster) (UniProt Q9V5M3)
Experiment: affinity purification with mass spectrometry; HA-Lola29M[Δ1-150]-V5 expressed in S2 cells, immuno-purified with anti-V5-tag magnetic beads, trypsinized, LC-MS/MS

Question: For “Cullin1 (Cul1), E3 ubiquitin ligase (from UniProt Q24311 1-774)”, which binding is on record?
Answer: binds
